Experimental data taken from article PMC6637887.
No constants are given. Whether binding was seen depends on the method and setting. Binding seen in cells or lysates may run through a third protein. Some results given as binding are weak or reduced against the parent protein; the word gives no strength.

The chains behind the UniProt entries cited, without tags or fusion partners.
UniProt Q71VM4: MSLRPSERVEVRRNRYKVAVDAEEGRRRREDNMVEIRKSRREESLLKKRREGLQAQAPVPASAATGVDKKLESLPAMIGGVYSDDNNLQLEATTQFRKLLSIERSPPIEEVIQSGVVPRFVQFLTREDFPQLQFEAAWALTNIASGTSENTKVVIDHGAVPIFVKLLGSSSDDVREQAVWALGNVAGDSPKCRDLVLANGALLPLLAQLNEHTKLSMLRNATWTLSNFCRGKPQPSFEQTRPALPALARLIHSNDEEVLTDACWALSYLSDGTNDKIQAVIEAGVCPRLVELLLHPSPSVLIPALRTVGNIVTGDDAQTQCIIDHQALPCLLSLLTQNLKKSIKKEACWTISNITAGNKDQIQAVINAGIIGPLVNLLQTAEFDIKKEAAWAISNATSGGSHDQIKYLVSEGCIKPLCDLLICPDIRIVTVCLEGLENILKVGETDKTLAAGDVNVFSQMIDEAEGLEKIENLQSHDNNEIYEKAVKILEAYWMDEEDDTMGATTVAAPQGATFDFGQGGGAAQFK
UniProt Q9SLX0: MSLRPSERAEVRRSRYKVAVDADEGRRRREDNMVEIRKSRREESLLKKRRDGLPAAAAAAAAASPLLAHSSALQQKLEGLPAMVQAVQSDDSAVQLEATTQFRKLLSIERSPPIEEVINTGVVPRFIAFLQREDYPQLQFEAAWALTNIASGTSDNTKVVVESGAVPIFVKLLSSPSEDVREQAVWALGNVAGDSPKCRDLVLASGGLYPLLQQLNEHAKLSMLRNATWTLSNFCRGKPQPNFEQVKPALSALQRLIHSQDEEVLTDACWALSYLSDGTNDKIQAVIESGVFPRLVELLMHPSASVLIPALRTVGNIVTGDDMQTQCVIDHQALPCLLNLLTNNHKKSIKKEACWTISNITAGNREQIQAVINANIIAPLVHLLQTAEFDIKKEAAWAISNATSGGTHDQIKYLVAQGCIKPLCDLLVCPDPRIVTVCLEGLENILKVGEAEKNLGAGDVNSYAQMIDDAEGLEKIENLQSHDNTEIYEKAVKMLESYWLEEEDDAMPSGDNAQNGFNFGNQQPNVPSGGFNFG

Experiments:
[1] = biological target: OsImpα1a-cLUC (rice (Oryza sativa)) (UniProt Q71VM4); assay: split reporter
[2] = biological target: OsImpα1b-cLUC (rice (Oryza sativa)) (UniProt Q9SLX0); assay: split reporter
[3] = biological target: OsImpα1a-FLAG (rice (Oryza sativa)) (UniProt Q71VM4); assay: co-IP
[4] = biological target: OsImpα1b-FLAG (rice (Oryza sativa)) (UniProt Q9SLX0); assay: co-IP

Row | Substance | binding [1] | binding [2] | binding [3] | binding [4]
1 | pthXo1-nLUC (from UniProt B2SU53 1-1373) | binds | binds |  | 
2 | pthXo1-myc (from UniProt B2SU53 1-1373) |  |  | binds | binds
